Experimental data as given in the supplement of paper PMC6411743.
± gives the standard deviation of the averaged measurements. Only a part is listed here, and it is no random draw. Small differences around the control level are noise.

By UniProt entry, the sequences of proteins in these tests, tags left out. Where a name states a change or a piece, a line headed by the entry shows the natural chain unless it says otherwise.
UniProt P11171, whole entry: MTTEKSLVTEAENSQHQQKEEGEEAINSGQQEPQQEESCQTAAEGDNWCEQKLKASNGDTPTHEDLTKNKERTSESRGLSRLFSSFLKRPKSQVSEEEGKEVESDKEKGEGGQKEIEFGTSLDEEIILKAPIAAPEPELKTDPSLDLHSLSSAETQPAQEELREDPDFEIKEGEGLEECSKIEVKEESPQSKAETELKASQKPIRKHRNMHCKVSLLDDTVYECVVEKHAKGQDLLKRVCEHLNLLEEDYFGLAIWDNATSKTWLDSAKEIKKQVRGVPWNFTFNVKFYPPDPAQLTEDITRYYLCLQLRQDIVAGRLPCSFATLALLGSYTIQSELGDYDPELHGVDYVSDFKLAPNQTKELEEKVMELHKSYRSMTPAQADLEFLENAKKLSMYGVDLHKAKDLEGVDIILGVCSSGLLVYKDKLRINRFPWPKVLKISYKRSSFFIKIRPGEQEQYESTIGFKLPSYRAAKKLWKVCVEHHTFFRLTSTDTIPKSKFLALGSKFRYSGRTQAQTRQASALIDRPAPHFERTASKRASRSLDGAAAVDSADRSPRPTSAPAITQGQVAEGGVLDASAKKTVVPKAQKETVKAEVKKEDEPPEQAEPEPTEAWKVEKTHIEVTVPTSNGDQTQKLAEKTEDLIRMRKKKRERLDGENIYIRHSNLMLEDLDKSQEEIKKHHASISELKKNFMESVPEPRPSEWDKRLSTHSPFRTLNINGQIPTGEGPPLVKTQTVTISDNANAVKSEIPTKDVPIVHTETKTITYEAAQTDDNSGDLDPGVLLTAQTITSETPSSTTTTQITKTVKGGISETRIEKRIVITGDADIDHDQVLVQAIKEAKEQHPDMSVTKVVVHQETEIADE
UniProt P13073, whole entry: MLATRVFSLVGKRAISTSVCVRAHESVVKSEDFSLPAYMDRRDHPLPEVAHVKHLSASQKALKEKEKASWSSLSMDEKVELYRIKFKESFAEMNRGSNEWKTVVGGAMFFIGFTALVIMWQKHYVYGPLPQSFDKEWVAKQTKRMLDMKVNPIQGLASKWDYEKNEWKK
UniProt P10599: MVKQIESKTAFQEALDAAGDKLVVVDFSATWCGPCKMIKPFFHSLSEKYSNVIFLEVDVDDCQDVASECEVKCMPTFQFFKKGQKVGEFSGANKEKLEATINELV
UniProt P09429: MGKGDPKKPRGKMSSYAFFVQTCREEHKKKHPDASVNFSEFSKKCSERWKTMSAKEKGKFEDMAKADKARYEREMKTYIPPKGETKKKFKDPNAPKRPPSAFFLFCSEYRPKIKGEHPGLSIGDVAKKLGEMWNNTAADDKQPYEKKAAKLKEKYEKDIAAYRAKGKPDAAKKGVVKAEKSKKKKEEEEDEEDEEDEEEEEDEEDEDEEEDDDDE
UniProt P15882: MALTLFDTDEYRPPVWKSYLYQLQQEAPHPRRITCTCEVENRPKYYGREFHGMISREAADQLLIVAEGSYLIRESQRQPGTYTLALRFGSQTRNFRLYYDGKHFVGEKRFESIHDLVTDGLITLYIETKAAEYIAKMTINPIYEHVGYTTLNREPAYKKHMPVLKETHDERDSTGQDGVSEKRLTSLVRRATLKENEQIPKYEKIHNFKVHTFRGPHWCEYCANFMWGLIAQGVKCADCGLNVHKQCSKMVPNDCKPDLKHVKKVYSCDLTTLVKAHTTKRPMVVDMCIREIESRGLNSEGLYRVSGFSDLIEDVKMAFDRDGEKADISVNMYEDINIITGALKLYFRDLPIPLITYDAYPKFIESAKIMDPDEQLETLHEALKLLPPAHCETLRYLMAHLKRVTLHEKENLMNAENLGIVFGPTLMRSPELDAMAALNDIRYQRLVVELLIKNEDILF
UniProt P01137, whole entry: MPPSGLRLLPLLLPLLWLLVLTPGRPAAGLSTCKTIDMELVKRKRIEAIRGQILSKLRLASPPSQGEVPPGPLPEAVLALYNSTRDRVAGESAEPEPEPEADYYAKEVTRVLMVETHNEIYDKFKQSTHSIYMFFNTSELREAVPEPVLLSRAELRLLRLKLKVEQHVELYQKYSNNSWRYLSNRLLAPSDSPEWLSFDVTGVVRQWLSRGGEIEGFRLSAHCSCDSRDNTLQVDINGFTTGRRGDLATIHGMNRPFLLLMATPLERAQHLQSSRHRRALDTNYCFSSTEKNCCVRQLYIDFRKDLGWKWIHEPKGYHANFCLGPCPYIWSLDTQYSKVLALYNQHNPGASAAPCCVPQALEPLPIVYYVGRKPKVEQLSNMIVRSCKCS
UniProt P16220: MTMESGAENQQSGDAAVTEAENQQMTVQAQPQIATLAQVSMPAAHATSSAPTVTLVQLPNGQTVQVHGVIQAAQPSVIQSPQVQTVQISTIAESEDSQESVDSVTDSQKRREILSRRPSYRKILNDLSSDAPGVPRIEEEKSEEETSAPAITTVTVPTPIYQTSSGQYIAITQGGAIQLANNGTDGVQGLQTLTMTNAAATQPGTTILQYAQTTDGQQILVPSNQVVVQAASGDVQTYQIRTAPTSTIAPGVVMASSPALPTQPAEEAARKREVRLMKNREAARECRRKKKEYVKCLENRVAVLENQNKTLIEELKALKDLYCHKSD
UniProt P04150: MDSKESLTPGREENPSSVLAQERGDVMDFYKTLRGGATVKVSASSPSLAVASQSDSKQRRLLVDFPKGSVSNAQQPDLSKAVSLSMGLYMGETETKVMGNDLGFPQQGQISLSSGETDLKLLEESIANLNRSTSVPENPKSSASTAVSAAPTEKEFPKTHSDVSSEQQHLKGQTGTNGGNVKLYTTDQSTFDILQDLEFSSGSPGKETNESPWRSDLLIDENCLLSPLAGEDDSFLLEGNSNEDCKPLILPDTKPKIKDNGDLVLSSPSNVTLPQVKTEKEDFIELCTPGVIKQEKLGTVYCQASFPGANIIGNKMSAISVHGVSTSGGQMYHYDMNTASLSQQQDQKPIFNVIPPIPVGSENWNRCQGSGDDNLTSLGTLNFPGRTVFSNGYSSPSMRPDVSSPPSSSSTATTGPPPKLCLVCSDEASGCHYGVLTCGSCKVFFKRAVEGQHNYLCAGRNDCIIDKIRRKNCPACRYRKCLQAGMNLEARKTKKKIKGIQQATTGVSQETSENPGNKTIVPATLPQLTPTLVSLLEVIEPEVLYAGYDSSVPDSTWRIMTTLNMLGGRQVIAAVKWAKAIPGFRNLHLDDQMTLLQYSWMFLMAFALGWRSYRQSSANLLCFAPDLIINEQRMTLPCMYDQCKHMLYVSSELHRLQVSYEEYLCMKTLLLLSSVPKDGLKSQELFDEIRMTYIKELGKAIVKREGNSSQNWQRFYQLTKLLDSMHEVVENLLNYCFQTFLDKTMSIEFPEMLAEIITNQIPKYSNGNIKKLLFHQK
UniProt P12236: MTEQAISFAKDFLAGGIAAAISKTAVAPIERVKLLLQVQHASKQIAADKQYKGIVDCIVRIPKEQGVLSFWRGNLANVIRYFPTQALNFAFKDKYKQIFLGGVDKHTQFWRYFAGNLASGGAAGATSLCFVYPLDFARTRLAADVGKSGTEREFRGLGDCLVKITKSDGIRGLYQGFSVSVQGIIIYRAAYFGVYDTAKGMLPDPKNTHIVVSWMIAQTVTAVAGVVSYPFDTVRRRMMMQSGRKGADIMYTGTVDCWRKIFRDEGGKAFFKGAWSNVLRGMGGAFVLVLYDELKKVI
UniProt P08134, whole entry: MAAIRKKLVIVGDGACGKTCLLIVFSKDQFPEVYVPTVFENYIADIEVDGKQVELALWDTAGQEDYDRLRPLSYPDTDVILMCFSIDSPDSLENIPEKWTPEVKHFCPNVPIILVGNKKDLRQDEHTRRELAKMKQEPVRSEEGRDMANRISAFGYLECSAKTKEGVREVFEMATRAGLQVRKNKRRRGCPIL
UniProt P16455, whole entry: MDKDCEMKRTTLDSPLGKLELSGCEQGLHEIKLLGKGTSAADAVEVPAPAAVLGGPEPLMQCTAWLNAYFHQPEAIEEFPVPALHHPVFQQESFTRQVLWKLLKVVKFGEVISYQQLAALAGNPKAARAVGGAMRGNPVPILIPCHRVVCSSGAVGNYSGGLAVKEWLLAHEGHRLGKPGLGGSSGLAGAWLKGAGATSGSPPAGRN
UniProt P06753, whole entry: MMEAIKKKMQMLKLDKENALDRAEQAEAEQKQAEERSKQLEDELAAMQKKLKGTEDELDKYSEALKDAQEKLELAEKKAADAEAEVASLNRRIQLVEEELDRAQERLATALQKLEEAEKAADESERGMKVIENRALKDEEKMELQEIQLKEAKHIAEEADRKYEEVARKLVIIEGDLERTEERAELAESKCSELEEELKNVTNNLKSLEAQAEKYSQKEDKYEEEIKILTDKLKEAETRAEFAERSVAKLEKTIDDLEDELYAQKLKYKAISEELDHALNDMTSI
UniProt P09972: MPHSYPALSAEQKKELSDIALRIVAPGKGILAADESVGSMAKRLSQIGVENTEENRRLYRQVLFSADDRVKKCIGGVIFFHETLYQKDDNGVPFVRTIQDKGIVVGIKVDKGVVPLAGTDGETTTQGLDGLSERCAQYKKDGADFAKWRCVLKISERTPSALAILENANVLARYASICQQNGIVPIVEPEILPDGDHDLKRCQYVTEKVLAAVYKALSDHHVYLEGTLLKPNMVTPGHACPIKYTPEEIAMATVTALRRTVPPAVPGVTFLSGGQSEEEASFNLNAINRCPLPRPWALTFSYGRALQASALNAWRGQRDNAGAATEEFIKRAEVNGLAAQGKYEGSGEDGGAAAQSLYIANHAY
UniProt P15927: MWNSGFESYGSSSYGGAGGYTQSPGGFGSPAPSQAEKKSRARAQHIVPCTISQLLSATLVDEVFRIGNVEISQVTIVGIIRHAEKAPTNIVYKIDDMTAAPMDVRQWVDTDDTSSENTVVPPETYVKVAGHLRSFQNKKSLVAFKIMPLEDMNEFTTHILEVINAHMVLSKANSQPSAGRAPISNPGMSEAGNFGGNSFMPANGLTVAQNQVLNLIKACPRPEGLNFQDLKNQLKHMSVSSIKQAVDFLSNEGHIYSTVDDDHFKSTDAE
UniProt O96019, whole entry: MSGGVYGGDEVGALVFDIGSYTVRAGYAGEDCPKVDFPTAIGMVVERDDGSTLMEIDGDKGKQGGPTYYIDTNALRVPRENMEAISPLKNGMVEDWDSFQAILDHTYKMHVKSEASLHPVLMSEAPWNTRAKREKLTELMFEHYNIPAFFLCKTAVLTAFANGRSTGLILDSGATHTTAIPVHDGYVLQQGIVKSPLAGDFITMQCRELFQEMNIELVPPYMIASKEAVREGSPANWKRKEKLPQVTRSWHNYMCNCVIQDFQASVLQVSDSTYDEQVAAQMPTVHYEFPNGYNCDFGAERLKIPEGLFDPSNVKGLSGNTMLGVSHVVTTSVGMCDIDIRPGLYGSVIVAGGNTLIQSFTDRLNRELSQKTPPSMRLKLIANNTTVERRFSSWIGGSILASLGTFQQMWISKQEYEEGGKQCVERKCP
UniProt P08240: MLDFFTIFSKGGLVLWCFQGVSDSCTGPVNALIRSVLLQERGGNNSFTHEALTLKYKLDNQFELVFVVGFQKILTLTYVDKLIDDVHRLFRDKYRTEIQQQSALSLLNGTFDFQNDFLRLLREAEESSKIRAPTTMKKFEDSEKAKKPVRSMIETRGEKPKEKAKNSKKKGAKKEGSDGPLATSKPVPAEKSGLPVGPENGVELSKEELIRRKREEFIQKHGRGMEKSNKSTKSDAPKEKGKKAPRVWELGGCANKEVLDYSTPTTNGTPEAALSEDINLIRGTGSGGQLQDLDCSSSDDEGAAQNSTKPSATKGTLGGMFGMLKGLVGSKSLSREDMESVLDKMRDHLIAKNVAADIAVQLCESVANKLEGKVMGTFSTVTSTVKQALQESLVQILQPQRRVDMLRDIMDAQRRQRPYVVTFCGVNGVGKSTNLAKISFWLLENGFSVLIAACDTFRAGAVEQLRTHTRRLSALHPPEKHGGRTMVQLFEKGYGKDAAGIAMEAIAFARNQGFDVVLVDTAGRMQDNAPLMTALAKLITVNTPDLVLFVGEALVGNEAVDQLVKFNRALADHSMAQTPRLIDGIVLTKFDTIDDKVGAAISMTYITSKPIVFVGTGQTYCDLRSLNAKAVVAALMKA
UniProt P08559, whole entry: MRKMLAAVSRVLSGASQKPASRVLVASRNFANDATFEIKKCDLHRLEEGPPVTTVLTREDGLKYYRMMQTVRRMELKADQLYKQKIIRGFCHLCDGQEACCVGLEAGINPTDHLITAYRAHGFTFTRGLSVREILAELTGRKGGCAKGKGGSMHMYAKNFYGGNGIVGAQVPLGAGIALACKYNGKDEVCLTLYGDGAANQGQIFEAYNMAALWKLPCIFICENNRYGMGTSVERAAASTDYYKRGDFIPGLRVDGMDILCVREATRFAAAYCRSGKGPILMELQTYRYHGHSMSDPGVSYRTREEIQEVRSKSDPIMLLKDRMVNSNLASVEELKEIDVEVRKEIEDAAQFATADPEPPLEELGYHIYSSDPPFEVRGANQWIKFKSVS

The targets below were run with Nc1ncnc2c1ncn2[C@@H]1O[C@H](COP(=O)(O)OP(=O)(O)NP(=O)(O)O)[C@@H](O)[C@H]1O [adenylyl imidodiphosphate] (assay: NP40-soluble protein abundance relative to vehicle (solubility fold change) (ratio); higher = more soluble protein in presence of AMP-PNP). Conditions: concentration: 0.1mM.
Method in brief: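 Data come from three independent experiments in which Dounce-homogenised Jurkat crude lysate was treated at eight concentrations from 0.1 to 10 mM. Treatment ran 10 min at room temperature and then 3 min at 37 °C, after which 0.8% NP40 and benzonase were added for 60 min at 4 °C before ultracentrifugation. The supernatant underwent TMT labelling and LC-MS/MS, and vsn-normalised intensities were expressed as fold change against the detergent-processed vehicle in each replicate.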

For UniProt P11171 and related entries, which NP40-soluble protein abundance is on record?
Its NP40-soluble protein abundance is 0.984 ± 0.011.

How did the NP40-soluble protein abundance turn out when COX4I1 (UniProt P13073) was run?
The NP40-soluble protein abundance was 1.01 ± 0.014.

Which NP40-soluble protein abundance does the source give for TXN (UniProt P10599) here?
Its NP40-soluble protein abundance is 0.987 ± 0.026.

For UniProt P08243 and related entries, which NP40-soluble protein abundance is on record?
Its NP40-soluble protein abundance is 1.04 ± 0.059.

HMGB1 (UniProt P09429) was tested. Which NP40-soluble protein abundance did it give?
The NP40-soluble protein abundance was 0.98 ± 0.018.

HEXB (UniProt P07686) was tested. Which NP40-soluble protein abundance did it give?
Its NP40-soluble protein abundance is 1.03 ± 0.012.

With NRAS (UniProt P01111) as the target, how does the NP40-soluble protein abundance read?
The NP40-soluble protein abundance was 1.01 ± 0.035.

UniProt P06213-2|P06213 was tested. Which NP40-soluble protein abundance did it give?
Its NP40-soluble protein abundance is 0.993 ± 0.024.

With UniProt O95786 and related entries as the target, how does the NP40-soluble protein abundance read?
The NP40-soluble protein abundance was 1.03 ± 0.04.

How did the NP40-soluble protein abundance turn out when UniProt P15882 and related entries was run?
Its NP40-soluble protein abundance is 0.987 ± 0.06.

For ETFA (UniProt P13804), which NP40-soluble protein abundance is on record?
Its NP40-soluble protein abundance is 0.999 ± 0.038.

Same assay, conditions: concentration: 0.5mM

For TGFB1 (UniProt P01137), which NP40-soluble protein abundance is on record?
Its NP40-soluble protein abundance is 0.9829 ± 0.0086.

How did the NP40-soluble protein abundance turn out when TPR (UniProt P12270) was run?
Its NP40-soluble protein abundance is 0.996 ± 0.053.

CREB1 (UniProt P16220) was tested. Which NP40-soluble protein abundance did it give?
The NP40-soluble protein abundance was 1.04 ± 0.016.

Which NP40-soluble protein abundance does the source give for UniProt P04150 and related entries here?
The NP40-soluble protein abundance was 0.985 ± 0.022.

SKI (UniProt P12755) was tested. Which NP40-soluble protein abundance did it give?
The NP40-soluble protein abundance was 0.9979 ± 0.0082.

For SLC25A6 (UniProt P12236), which NP40-soluble protein abundance is on record?
Its NP40-soluble protein abundance is 0.957 ± 0.057.

For UniProt P04035 and related entries, which NP40-soluble protein abundance is on record?
Its NP40-soluble protein abundance is 0.976 ± 0.026.

With UniProt P08134 and related entries as the target, how does the NP40-soluble protein abundance read?
The NP40-soluble protein abundance was 1.08 ± 0.054.

MGMT (UniProt P16455) was tested. Which NP40-soluble protein abundance did it give?
Its NP40-soluble protein abundance is 1 ± 0.051.

Which NP40-soluble protein abundance does the source give for “UniProt P06753-2|P06753-3|P06753-5|P06753-6|J3KN67” here?
The NP40-soluble protein abundance was 1.13 ± 0.2.

With ALDOC (UniProt P09972) as the target, how does the NP40-soluble protein abundance read?
The NP40-soluble protein abundance was 1.04 ± 0.036.

Which NP40-soluble protein abundance does the source give for UniProt P15927 and related entries here?
The NP40-soluble protein abundance was 1.014 ± 0.0085.

Which NP40-soluble protein abundance does the source give for UniProt O96019 and related entries here?
Its NP40-soluble protein abundance is 0.968 ± 0.069.

For UniProt P08240, which NP40-soluble protein abundance is on record?
The NP40-soluble protein abundance was 0.9671 ± 0.0082.

How did the NP40-soluble protein abundance turn out when UniProt P08559 and related entries was run?
Its NP40-soluble protein abundance is 1.04 ± 0.1.
